Article PMC5785033
No constants are given. Whether binding was seen depends on the method and setting. In cells and extracts the contact can be indirect. These calls come from enrichment with a bait or labelling near it, and not all partners need be listed.

Protein sequences, listed by entry. Tags and fused reporters are not part of them.
UniProt Q91VN6: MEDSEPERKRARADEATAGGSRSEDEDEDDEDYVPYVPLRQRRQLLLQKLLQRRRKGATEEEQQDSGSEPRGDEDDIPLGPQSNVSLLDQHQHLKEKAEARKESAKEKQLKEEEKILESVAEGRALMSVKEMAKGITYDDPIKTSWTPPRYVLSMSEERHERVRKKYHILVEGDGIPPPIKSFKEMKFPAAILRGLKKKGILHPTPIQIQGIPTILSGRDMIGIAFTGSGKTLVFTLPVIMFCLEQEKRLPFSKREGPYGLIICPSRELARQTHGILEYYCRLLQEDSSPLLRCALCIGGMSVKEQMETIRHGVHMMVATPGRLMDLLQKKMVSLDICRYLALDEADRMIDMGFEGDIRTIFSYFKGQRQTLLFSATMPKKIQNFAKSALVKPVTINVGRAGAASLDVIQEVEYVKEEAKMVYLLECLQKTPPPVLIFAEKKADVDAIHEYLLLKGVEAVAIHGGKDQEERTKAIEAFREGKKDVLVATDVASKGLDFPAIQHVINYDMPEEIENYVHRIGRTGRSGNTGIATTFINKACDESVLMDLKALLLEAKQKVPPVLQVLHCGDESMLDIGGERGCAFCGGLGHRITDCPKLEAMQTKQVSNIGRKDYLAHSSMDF

T1: MORC2B (mouse (endogenous in testis)) (UniProt Q8C5W4)
T1 sequence: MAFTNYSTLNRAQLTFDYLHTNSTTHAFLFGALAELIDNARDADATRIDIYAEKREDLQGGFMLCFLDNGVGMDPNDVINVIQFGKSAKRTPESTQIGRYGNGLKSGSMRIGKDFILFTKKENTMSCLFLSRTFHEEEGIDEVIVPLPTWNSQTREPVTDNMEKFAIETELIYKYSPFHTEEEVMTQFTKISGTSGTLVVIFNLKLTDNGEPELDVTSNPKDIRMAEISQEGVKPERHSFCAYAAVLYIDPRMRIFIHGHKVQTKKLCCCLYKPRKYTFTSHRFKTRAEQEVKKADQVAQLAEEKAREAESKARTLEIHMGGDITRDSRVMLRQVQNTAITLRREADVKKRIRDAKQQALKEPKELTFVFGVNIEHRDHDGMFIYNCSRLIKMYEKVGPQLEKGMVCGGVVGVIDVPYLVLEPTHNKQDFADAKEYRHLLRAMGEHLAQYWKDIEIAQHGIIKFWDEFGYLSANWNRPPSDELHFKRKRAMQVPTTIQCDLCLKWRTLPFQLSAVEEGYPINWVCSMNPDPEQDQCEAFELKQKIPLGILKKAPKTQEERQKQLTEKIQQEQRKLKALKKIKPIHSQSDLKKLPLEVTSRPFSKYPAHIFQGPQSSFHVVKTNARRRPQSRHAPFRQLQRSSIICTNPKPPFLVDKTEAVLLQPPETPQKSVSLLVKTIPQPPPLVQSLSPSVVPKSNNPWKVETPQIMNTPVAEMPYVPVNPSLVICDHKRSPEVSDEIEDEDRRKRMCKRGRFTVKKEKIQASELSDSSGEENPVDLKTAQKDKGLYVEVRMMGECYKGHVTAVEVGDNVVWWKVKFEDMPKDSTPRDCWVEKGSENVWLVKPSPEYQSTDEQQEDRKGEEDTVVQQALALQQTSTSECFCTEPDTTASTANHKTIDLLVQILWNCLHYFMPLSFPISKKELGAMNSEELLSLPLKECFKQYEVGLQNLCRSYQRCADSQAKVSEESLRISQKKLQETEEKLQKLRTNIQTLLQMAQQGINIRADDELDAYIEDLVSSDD


target: T1, MORC2B (mouse (endogenous in testis)); experiment: affinity purification with mass spectrometry; IP with affinity-purified MORC2B antibodies from postnatal day 20 mouse testis extracts; SDS-PAGE, SYPRO Ruby; bands present in wild type but not Morc2b-/- IP cut out for mass spectrometry

| binding | Molecule |
| --- | --- |
| binds | DDX41 (from UniProt Q91VN6 1-622) |
| binds | MORC2A (protein, UniProt Q69ZX6 1-1030) MAFTNYSSLNRAQLTFEYLHTNSTTHEFLFGALAELVDNARDADATRIDIYAERREDLRGGFMLCFLDDGAGMDPSDAASVIQFGKSAKRTPESTQIGQYGNGLKSGSMRIGKDFILFTKKEDTMTCLFLSRTFHEEEGIDEVIVPLPTWNARTREPITDNVEKFAIETELVYKYSPFHTEEQVMNQFMKIPGNSGTLVIIFNLKLMDNGEPELDIISNPKDIQMAETSPEGTKPERRSFRAYAAVLYIDPRMRIFIHGHKVQTKRLSCCLYKPRMYKYTSSRFKTRAEQEVKKAEHVARIAEEKAREAESKARTLEVRMGGDLTRDSRVMLRQVQNTAITLRREADVKKRIKDAKQRALKEPKELNFVFGVNIEHRDLDGMFIYNCSRLIKMYEKVGPQLEGGMACGGVVGVVDVPYLVLEPTHNKQDFADAKEYRHLLRAMGEHLAQYWKDIAIAQRGIIKFWDEFGYLSANWNQPPSSELRFKRRRAMEIPTTIQCDLCLKWRTLPFQLSSVETDYPDTWVCSMNPDPEQDRCEASEQKQKVPLGTLKKDPKTQEEKQKQLTEKIRQQQEKLEALQKTTPIRSQADLKKLPLEVTTRPIEEPVRRPQRPRSPPLPAVIKNAPSRPPSIQTPRPSTQLRKTSVISLPKPPTTAARGETSTSRLLQPTEAPRKPANPPIKTVPRPTPPVHTPPLSLIPSSKSLREVPAQKAIKTPVVKKPEPPVKQSVATSGRKRSLAVSDEEEAEEEAEKRRERCKRGKLAVKEEKKEANELSDSAGEDHPAELRKAQKDKGLHVEVRVNREWYTGRVTAVEVGKNAVRWKVKFDYVPTDTTPRDRWVEKGSEDVRLMKPPSPEHQSPDTQQEGGEEEEAMVARQAVALPEPSTSDGLPIEPDTTATSPSHETIDLLVQILRNCLRYFLPPSFPISKKELSVMNSEELISFPLKEYFKQYEVGLQNLCHSYQSRADSRAKASEESLRTSEKKLRETEEKLQKLRTNIVALLQKVQEDIDINTDDELDAYIEDLITKGD |
| binds | ARID3B (protein, UniProt Q9Z1N7 1-568) MEPLQQQQQQQQQKQPQQPLLQMDAREKQGPQTRESQFLYASKLGTQPALLSITPGRPSGSSVLGPLARVPPATPVARMSEQSNVNSEPEEEEGGLEDEDGDDDVAEVAEKEAQAASKYFHMQKVTRQEPRATPMSSLLPVPGLSPQGQQTKEDHTKDASKAPPSVPTAGQPSWSLDEQLKQNGALAWSDDADGGRGREISRDFAKLYELDGDPERKEFLDDLFIFMQKRGTPINRIPIMAKQILDLYMLYKLVTEKGGLVEIINKKIWREITKGLNLPTSITSAAFTLRTQYMKYLYAYECEKKALSSPAELQAAIDGNRREGRRPSYSSSLFGYSPAAAAAAAAAAAAAAASAASAGTPALLSSPKIRFSILGLGSSSGTSASSPRIPPASTLRKGDGVPVPVPNRLAVSGTLAGQQAGNRPGPLEHLRERLESGEPPEKKASRLSEEEQRLVQQAFQRNLFSMARQLPMKIRINGREDRAEPSAPALNLTTSNIGSINMSVDIDGTTYTGVLFAQKPVVHLIAGSTPQSIGSSASSSNSSSSHCSPSPTSSRGTPSAEPSTSWSL |
